PubChem BioAssay AID1259405, NCATS – 2018

Screen: 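Silenced genes that increase secreted GFP made by CHO cells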 (primary screen)
System: Chinese hamster CHO-K1 ovary cells with stable secreted eGFP expression
Knock-down reagent: single siRNA against mouse genes, 0.8 pmol siRNA per well (2 µl of 400 nM stock)
Time to read-out: 3 days
Read-out: 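Percent of the per-plate non-targeting control median for intracellular GFP per well by laser scanning cytometry and for cell viability by ATP luminescence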
Reading the numbers: GFP, % of control: higher = more GFP per well, higher productivity; viability (ATP), % of control: higher = more viable cells (more ATP)
Hit rule: 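Called active when intracellular GFP, relative to negative control, is at or above 120%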
In all, the deposit lists about 50,000 reagents; below is a part drawn at random. Over the whole deposit, about 4,000 (8%) got an active call. 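Mouse siRNA library applied to hamster cells; one well for each siRNA.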 The numbers tell different reagents against one gene apart.

Chodl (chondrolectin) #1 — GFP, % of control = 89.7; viability (ATP), % of control = 77; outcome = inactive
Chodl (chondrolectin) #2 — GFP, % of control = 57.6; viability (ATP), % of control = 64.2; outcome = inactive
Chodl (chondrolectin) #3 — GFP, % of control = 81.8; viability (ATP), % of control = 80.8; outcome = inactive
Psenen (presenilin enhancer gamma secretase subunit) #1 — GFP, % of control = 154; viability (ATP), % of control = 96.5; outcome = active
Psenen (presenilin enhancer gamma secretase subunit) #2 — GFP, % of control = 98.5; viability (ATP), % of control = 57.9; outcome = inactive
Psenen (presenilin enhancer gamma secretase subunit) #3 — GFP, % of control = 62.2; viability (ATP), % of control = 65.6; outcome = inactive
Dgka (diacylglycerol kinase, alpha) — GFP, % of control = 74.4; viability (ATP), % of control = 48.8; outcome = inactive
Pde3a (phosphodiesterase 3A, cGMP inhibited) #1 — GFP, % of control = 109; viability (ATP), % of control = 58; outcome = inactive
Pde3a (phosphodiesterase 3A, cGMP inhibited) #2 — GFP, % of control = 59.2; viability (ATP), % of control = 52.9; outcome = inactive
Pde3a (phosphodiesterase 3A, cGMP inhibited) #3 — GFP, % of control = 238; viability (ATP), % of control = 130; outcome = active
Notch2 (notch 2) #1 — GFP, % of control = 115; viability (ATP), % of control = 95.4; outcome = inactive
Notch2 (notch 2) #2 — GFP, % of control = 87.6; viability (ATP), % of control = 81.2; outcome = inactive
Notch2 (notch 2) #3 — GFP, % of control = 58.9; viability (ATP), % of control = 90.8; outcome = inactive
Rnf145 (ring finger protein 145) #1 — GFP, % of control = 112; viability (ATP), % of control = 80.3; outcome = inactive
Rnf145 (ring finger protein 145) #2 — GFP, % of control = 78.2; viability (ATP), % of control = 89.7; outcome = inactive
Rnf145 (ring finger protein 145) #3 — GFP, % of control = 69; viability (ATP), % of control = 45.9; outcome = inactive
Leap2 (liver-expressed antimicrobial peptide 2) #1 — GFP, % of control = 53.2; viability (ATP), % of control = 79.6; outcome = inactive
Leap2 (liver-expressed antimicrobial peptide 2) #2 — GFP, % of control = 33.3; viability (ATP), % of control = 16.4; outcome = inactive
Leap2 (liver-expressed antimicrobial peptide 2) #3 — GFP, % of control = 82.5; viability (ATP), % of control = 59.5; outcome = inactive
Aars2 (alanyl-tRNA synthetase 2, mitochondrial) #1 — GFP, % of control = 102; viability (ATP), % of control = 94.3; outcome = inactive
Aars2 (alanyl-tRNA synthetase 2, mitochondrial) #2 — GFP, % of control = 61.6; viability (ATP), % of control = 67.6; outcome = inactive
Aars2 (alanyl-tRNA synthetase 2, mitochondrial) #3 — GFP, % of control = 66.5; viability (ATP), % of control = 81.7; outcome = inactive
Cyp3a41a (cytochrome P450, family 3, subfamily a, polypeptide 41A) #1 — GFP, % of control = 73.3; viability (ATP), % of control = 36.8; outcome = inactive
Cyp3a41a (cytochrome P450, family 3, subfamily a, polypeptide 41A) #2 — GFP, % of control = 69.7; viability (ATP), % of control = 78.5; outcome = inactive
Cyp3a41a (cytochrome P450, family 3, subfamily a, polypeptide 41A) #3 — GFP, % of control = 35.3; viability (ATP), % of control = 59.9; outcome = inactive
Pdcd2 (programmed cell death 2) #1 — GFP, % of control = 84.5; viability (ATP), % of control = 80.7; outcome = inactive
Pdcd2 (programmed cell death 2) #2 — GFP, % of control = 110; viability (ATP), % of control = 142; outcome = inactive
Atg4c (autophagy related 4C, cysteine peptidase) #1 — GFP, % of control = 86.1; viability (ATP), % of control = 93; outcome = inactive
Atg4c (autophagy related 4C, cysteine peptidase) #2 — GFP, % of control = 79.6; viability (ATP), % of control = 78.6; outcome = inactive
Cst7 (cystatin F (leukocystatin)) #1 — GFP, % of control = 65.8; viability (ATP), % of control = 74.9; outcome = inactive
Cst7 (cystatin F (leukocystatin)) #2 — GFP, % of control = 45; viability (ATP), % of control = 39.6; outcome = inactive
Cst7 (cystatin F (leukocystatin)) #3 — GFP, % of control = 69.2; viability (ATP), % of control = 42.2; outcome = inactive
Tspan13 (tetraspanin 13) #1 — GFP, % of control = 62.9; viability (ATP), % of control = 88.5; outcome = inactive
Tspan13 (tetraspanin 13) #2 — GFP, % of control = 56; viability (ATP), % of control = 61.4; outcome = inactive
Tspan13 (tetraspanin 13) #3 — GFP, % of control = 43.3; viability (ATP), % of control = 90; outcome = inactive
Chchd2l2 #1 — GFP, % of control = 56.1; viability (ATP), % of control = 57.5; outcome = inactive
Chchd2l2 #2 — GFP, % of control = 70.4; viability (ATP), % of control = 40; outcome = inactive
Chchd2l2 #3 — GFP, % of control = 91.9; viability (ATP), % of control = 78.5; outcome = inactive
Atpaf1 (ATP synthase mitochondrial F1 complex assembly factor 1) #1 — GFP, % of control = 153; viability (ATP), % of control = 74.9; outcome = active
Atpaf1 (ATP synthase mitochondrial F1 complex assembly factor 1) #2 — GFP, % of control = 78.2; viability (ATP), % of control = 75.3; outcome = inactive
Atpaf1 (ATP synthase mitochondrial F1 complex assembly factor 1) #3 — GFP, % of control = 56.4; viability (ATP), % of control = 64.9; outcome = inactive

Entries listed so far whose gene name starts with R or r (3):
Rnf145 (ring finger protein 145) #1 — GFP, % of control = 112; viability (ATP), % of control = 80.3; outcome = inactive
Rnf145 (ring finger protein 145) #2 — GFP, % of control = 78.2; viability (ATP), % of control = 89.7; outcome = inactive
Rnf145 (ring finger protein 145) #3 — GFP, % of control = 69; viability (ATP), % of control = 45.9; outcome = inactive
